# Measurements from the supplement of paper PMC10849652.
# Chains of the proteins cited; added tags and fusions are not shown. Lines headed by an entry give the natural chain unless they say otherwise; changes in a name come on top.
# UniProt Q9NQX7: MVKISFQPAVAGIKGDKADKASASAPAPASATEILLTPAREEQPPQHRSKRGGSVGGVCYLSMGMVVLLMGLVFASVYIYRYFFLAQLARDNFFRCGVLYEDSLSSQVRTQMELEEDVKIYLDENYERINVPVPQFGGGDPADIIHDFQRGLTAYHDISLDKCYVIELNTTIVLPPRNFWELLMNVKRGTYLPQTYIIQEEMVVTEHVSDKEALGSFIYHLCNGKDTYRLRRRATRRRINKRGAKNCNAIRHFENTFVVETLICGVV
# UniProt P0C870: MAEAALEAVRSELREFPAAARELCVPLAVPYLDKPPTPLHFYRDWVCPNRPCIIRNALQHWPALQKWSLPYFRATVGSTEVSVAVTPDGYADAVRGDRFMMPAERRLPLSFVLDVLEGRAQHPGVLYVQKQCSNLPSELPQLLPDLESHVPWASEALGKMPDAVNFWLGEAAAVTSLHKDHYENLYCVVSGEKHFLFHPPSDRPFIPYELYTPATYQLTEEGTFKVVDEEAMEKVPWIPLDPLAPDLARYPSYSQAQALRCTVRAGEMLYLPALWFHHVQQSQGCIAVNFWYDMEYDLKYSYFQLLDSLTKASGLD
# UniProt P08514, whole entry, looked up: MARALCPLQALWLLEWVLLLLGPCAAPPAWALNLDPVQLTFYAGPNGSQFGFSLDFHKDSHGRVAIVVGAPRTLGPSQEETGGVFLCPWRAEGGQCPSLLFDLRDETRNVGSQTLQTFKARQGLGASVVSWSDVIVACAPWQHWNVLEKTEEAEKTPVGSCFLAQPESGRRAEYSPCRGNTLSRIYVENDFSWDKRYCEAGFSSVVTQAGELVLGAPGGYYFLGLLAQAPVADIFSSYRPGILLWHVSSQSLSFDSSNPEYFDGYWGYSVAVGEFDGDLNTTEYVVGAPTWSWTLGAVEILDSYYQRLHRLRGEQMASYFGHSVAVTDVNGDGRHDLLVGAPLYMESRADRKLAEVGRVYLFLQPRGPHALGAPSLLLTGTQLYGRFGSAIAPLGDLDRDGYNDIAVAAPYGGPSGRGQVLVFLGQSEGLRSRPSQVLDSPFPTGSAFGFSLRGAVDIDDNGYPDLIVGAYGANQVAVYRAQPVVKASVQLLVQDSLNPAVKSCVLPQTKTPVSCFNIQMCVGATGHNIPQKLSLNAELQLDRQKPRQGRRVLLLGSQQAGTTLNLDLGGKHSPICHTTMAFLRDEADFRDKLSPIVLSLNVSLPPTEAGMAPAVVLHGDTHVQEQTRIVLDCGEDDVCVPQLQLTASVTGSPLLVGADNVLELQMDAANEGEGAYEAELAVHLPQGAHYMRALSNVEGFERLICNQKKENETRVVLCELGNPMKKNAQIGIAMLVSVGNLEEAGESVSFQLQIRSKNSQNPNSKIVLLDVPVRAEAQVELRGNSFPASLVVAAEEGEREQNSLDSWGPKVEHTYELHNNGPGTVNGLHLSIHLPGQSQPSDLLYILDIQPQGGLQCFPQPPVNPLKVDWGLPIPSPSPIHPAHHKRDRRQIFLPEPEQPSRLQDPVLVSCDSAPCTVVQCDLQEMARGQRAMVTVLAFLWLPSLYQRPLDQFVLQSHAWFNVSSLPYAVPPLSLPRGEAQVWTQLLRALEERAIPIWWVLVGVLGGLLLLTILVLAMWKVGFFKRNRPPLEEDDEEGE
# UniProt P53990, whole entry, looked up: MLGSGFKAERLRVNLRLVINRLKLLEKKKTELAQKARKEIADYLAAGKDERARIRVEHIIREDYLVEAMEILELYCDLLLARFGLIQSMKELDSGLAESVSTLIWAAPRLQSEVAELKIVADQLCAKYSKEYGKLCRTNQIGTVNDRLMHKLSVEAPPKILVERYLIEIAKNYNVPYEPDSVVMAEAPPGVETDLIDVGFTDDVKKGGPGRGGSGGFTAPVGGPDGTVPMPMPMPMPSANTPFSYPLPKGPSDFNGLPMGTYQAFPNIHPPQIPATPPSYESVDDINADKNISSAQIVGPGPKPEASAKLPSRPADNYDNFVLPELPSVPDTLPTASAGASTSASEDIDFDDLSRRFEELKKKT
# UniProt Q96MP8: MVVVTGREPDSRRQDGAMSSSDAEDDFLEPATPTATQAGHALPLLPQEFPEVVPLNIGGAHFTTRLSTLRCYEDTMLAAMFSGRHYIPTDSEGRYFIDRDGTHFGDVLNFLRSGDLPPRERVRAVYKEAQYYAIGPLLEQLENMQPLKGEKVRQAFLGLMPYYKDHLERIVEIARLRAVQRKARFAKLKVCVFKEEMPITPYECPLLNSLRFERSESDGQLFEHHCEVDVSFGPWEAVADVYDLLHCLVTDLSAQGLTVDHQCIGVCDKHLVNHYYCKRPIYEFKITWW
# UniProt Q8NAX2: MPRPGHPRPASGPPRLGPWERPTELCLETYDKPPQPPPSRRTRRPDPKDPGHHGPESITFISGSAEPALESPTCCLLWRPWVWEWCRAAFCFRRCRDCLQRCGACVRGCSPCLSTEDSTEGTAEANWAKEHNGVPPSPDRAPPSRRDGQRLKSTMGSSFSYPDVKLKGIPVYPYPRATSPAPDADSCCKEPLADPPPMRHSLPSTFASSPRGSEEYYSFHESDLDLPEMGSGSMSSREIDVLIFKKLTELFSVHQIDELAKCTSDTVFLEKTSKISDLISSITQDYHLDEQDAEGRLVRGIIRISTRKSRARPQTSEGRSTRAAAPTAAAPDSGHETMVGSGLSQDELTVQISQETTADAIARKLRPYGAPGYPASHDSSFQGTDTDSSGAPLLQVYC
# UniProt Q9H8E8: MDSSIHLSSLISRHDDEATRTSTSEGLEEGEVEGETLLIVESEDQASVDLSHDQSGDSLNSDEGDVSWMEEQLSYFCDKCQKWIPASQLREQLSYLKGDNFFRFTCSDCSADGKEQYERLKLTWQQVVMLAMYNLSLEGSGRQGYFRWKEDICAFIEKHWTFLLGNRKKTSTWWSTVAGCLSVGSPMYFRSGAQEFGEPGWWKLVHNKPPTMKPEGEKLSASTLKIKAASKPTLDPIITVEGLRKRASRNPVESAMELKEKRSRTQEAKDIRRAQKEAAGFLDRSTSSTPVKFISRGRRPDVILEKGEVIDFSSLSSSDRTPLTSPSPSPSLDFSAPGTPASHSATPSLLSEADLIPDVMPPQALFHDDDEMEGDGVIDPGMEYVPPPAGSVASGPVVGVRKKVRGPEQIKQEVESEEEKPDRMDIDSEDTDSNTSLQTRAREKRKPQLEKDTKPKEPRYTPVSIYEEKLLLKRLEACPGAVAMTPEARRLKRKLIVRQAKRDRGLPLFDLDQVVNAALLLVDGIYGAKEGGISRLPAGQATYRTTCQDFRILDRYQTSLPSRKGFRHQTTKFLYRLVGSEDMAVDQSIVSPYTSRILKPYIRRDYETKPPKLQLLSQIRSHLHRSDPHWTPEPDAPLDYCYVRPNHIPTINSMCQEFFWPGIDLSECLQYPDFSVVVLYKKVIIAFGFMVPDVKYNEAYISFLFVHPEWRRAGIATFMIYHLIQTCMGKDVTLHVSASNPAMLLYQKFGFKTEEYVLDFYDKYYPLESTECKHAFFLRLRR
# UniProt Q9Y4H2: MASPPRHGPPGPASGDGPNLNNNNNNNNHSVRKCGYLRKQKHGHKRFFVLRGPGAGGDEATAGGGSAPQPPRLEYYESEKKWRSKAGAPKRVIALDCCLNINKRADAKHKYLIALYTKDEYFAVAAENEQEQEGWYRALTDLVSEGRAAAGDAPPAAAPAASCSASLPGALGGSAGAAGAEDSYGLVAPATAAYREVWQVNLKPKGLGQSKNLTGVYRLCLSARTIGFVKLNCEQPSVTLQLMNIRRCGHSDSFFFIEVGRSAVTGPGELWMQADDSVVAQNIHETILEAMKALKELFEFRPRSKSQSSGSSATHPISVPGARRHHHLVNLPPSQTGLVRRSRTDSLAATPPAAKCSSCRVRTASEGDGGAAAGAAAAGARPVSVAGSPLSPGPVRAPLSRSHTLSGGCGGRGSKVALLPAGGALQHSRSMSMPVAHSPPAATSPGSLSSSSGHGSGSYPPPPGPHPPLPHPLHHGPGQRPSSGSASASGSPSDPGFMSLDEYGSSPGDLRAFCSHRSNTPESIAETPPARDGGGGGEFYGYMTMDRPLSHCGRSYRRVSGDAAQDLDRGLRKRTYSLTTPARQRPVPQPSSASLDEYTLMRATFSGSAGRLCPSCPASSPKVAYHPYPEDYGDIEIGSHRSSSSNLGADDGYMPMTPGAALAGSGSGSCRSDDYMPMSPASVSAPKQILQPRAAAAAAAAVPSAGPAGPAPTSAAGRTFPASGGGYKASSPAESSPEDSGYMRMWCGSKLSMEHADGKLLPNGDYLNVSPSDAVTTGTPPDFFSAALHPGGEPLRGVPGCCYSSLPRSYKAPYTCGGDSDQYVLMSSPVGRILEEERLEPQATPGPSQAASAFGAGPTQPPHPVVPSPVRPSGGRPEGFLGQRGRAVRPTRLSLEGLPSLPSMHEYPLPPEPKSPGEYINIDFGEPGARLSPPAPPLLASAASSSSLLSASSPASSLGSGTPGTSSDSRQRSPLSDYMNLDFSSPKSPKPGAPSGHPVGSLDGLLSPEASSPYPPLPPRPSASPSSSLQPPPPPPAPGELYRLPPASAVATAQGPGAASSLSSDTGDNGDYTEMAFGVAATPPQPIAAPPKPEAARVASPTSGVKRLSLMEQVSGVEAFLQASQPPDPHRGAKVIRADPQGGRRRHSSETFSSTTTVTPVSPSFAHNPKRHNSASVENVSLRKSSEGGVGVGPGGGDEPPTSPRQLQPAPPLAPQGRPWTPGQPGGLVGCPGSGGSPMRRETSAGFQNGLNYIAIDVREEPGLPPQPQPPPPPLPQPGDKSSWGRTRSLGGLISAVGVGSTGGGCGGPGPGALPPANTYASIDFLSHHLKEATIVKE
# UniProt Q14624: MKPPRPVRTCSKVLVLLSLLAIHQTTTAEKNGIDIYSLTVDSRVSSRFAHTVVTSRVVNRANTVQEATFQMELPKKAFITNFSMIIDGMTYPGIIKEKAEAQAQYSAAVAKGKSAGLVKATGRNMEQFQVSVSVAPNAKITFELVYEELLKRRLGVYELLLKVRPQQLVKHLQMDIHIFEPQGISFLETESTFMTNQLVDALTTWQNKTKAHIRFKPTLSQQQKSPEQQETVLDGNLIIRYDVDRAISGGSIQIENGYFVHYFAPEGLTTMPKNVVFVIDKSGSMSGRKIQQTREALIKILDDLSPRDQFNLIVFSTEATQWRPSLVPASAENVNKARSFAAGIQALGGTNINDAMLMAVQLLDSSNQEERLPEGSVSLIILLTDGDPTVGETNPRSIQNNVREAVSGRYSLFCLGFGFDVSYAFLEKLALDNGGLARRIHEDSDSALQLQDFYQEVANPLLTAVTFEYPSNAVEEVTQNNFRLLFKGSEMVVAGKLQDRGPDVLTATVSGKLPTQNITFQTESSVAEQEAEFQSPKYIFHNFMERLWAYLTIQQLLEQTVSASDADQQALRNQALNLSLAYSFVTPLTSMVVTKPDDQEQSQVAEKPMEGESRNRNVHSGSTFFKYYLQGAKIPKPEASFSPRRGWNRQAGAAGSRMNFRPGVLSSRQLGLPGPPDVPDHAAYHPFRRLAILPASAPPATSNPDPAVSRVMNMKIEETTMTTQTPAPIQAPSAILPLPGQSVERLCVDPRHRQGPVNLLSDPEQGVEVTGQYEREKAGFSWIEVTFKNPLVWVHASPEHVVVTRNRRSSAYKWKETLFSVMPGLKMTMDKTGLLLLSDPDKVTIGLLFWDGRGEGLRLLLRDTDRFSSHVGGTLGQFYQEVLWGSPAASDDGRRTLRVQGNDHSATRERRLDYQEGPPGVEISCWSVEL
# UniProt Q5JSJ4, whole entry, looked up: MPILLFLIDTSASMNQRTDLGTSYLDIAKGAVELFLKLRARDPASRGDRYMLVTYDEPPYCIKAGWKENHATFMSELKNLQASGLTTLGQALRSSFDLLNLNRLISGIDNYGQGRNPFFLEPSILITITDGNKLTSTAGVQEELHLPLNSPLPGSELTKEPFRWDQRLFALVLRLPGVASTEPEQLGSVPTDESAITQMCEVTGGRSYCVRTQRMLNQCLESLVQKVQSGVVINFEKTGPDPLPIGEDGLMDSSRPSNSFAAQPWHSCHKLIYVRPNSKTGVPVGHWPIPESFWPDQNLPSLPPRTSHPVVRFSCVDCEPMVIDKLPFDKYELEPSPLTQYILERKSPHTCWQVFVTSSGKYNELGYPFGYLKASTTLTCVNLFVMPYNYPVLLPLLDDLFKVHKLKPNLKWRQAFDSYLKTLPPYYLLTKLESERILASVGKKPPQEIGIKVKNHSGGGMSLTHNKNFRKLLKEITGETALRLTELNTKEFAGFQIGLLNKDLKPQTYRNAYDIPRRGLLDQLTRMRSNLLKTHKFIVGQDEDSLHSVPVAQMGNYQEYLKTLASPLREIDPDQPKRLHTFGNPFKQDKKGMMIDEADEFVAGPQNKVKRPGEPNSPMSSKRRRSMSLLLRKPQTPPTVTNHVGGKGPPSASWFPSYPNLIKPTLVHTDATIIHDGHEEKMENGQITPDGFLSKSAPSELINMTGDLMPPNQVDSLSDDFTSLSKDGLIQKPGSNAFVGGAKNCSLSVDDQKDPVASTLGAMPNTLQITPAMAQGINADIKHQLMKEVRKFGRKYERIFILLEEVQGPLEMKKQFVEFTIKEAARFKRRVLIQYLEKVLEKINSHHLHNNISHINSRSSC
# Some of the results follow.
# Experiments:
# Test in all cases: log2 fold change, soluble protein after heating vs DMSO (PISA); higher = thermal stabilisation; K562 lysate, 10 uM; active = over 0.2 and 3.5 SD of the protein, either way, in both replicates (recomputed)
# [1] = compound: CS(=O)(=O)CCNCc1ccc(-c2ccc3ncnc(Nc4ccc(OCc5cccc(F)c5)c(Cl)c4)c3c2)o1 [lapatinib]
# How it was run: (§1)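 Following dounce homogenisation of K562 pellets in PBS pH 7.4 with 1 mM MgCl2, crude extract at 1 mg/mL protein was incubated for 30 min with 10 μM compound. Aliquots were then heated for 3 min over 48°C-58°C and pooled, NP-40 was added to 0.5% at 4°C, and soluble protein was recovered as the supernatant at 21,000xg for 90 min. Channel-sum-equalised TMTpro 16plex LC-MS/MS quantified this protein. Each value, from duplicates, is a log-two fold change in thermal stability relative to solvent controls.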
# [2] = compound: CS(=O)(=O)N1CCN(Cc2cc3nc(-c4cccc5[nH]ncc45)nc(N4CCOCC4)c3s2)CC1 [pictilisib]
# How it was run: as §1
# [3] = compound: C[C@@H](Oc1cc(-c2cnn(C3CCNCC3)c2)cnc1N)c1c(Cl)ccc(F)c1Cl [crizotinib]
# How it was run: as §1
# [4] = compound: C[C@H](Nc1ncnc2nc[nH]c12)c1cc2cccc(Cl)c2c(=O)n1-c1ccccc1 [duvelisib]
# How it was run: as §1
# [5] = compound: Cc1cc(Nc2cc(N3CCN(C)CC3)nc(Sc3ccc(NC(=O)C4CC4)cc3)n2)n[nH]1 [tozasertib]
# How it was run: as §1
# [6] = compound: Cc1ccc(-n2nc(C(C)(C)C)cc2NC(=O)Nc2ccc(OCCN3CCOCC3)c3ccccc23)cc1 [doramapimod]
# How it was run: as §1
# [7] = compound: Cc1ccc(NC(=O)c2ccc(CN3CC[C@H](N(C)C)C3)c(C(F)(F)F)c2)cc1Nc1nccc(-c2cncnc2)n1 [bafetinib]
# How it was run: as §1
# [8] = compound: Cc1nc(Nc2ncc(C(=O)Nc3c(C)cccc3Cl)s2)cc(N2CCN(CCO)CC2)n1 [dasatinib]
# How it was run: as §1
# [9] = compound: Cn1cc(-c2ccc3c(c2)CCN3C(=O)Cc2cccc(C(F)(F)F)c2)c2c(N)ncnc21
# How it was run: as §1
# [10] = compound: Cn1cc(CNCC2CCN(c3ncc(C(=O)NO)cn3)CC2)c2ccccc21 [quisinostat]
# How it was run: as §1
# [11] = compound: NC(=O)Nc1cc(-c2cccc(F)c2)sc1C(=O)N[C@H]1CCCNC1
# How it was run: as §1
# [12] = compound: NC(=O)c1cnc(N[C@@H]2CCCC[C@@H]2N)nc1Nc1cccc(-n2nccn2)c1
# How it was run: as §1
# [13] = compound: NC1(c2ccc(-c3nc4ccn5c(=O)[nH]nc5c4cc3-c3ccccc3)cc2)CCC1
# How it was run: as §1
# [14] = compound: C[C@H](C1=CC=C(C=C1)C(=O)NC2=C3C=CNC3=NC=C2)N
# How it was run: as §1
# [15] = compound: Cc1cc(Nc2cc(CN3CCOCC3)c3nc(C)c(Cc4ccc(Cl)cc4F)n3n2)n[nH]1 [gandotinib]
# How it was run: as §1
# [16] = compound: Cc1cccc(CC(=O)N2CCc3c2ccc(-c2cn(C)c4ncnc(N)c24)c3F)n1
# How it was run: as §1
# [17] = compound: Cc1cn(-c2cc(NC(=O)c3ccc(C)c(Nc4nccc(-c5cccnc5)n4)c3)cc(C(F)(F)F)c2)cn1 [nilotinib]
# How it was run: as §1
# [18] = compound: Cc1nc(Nc2n[nH]c3c2CN(C(=O)N[C@H](CN(C)C)c2ccccc2)C3(C)C)c2sccc2n1
# How it was run: as §1
# [19] = compound: Cc1ncc(-c2ccnc(Nc3ccc(S(C)(=O)=O)cc3)n2)n1C(C)C
# How it was run: as §1
# [20] = compound: Cn1cncc1[C@@](N)(c1ccc(Cl)cc1)c1ccc2c(c1)c(-c1cccc(Cl)c1)cc(=O)n2C [tipifarnib]
# How it was run: as §1
Target,log2 fold change [1],log2 fold change [2],log2 fold change [3],log2 fold change [4],log2 fold change [5],log2 fold change [6],log2 fold change [7],log2 fold change [8],log2 fold change [9],log2 fold change [10],log2 fold change [11],log2 fold change [12],log2 fold change [13],log2 fold change [14],log2 fold change [15],log2 fold change [16],log2 fold change [17],log2 fold change [18],log2 fold change [19],log2 fold change [20]
ITM2C (UniProt Q9NQX7),inactive: 0.27,inactive: -0.109,inactive: 0.143,inactive: -0.017,inactive: 0.037,inactive: -0.083,inactive: -0.532,inactive: -0.098,inactive: 0.084,inactive: 0.287,inactive: -0.037,inactive: -0.001,inactive: 0.019,–,–,–,–,–,–,–
JMJD6 isoform 3 (UniProt Q6NYC1),inactive: -0.001,inactive: -0.004,inactive: 0.011,inactive: 0.045,inactive: -0.008,inactive: 0.019,inactive: -0.013,inactive: 0.01,inactive: -0.053,inactive: -0.015,inactive: 0.071,inactive: -0.022,inactive: -0.022,inactive: -0.006,inactive: -0.13,inactive: -0.048,inactive: -0.018,inactive: 0.004,inactive: -0.023,inactive: -0.034
JMJD7 (UniProt P0C870),inactive: 0.099,inactive: 0.102,–,inactive: -0.23,inactive: -0.191,–,inactive: -0.055,inactive: -0.321,inactive: 0.011,–,–,inactive: 0.028,inactive: -0.07,inactive: -0.186,inactive: 0.005,inactive: 0.116,inactive: -0.294,inactive: -0.116,inactive: 0.098,inactive: -0.072
ITGA2B (UniProt P08514),inactive: 0.209,–,inactive: -0.073,–,–,inactive: 0.054,–,–,–,inactive: -0.144,inactive: 0.007,inactive: -0.103,inactive: 0.055,inactive: 0.076,inactive: 0.155,inactive: 0.052,inactive: 0.138,inactive: -0.055,inactive: -0.107,inactive: -0.105
IST1 isoform 2 (UniProt P53990),inactive: -0.036,–,inactive: 0.048,inactive: -0.11,inactive: 0.203,inactive: 0.056,–,inactive: -0.012,inactive: -0.045,inactive: -0.065,inactive: 0.048,inactive: -0.017,inactive: 0.043,–,–,–,inactive: -0.145,inactive: 0.064,inactive: 0.112,inactive: -0.266
JUN (UniProt P05412),inactive: 0.071,–,inactive: -0.125,inactive: 0.172,inactive: 0.107,inactive: 0.011,–,inactive: -0.035,inactive: 0.009,inactive: 0.004,inactive: -0.002,inactive: 0.04,inactive: -0.011,–,–,–,–,–,–,–
ITPR3 (UniProt Q14573),inactive: -0.013,–,inactive: -0.288,–,–,inactive: -0.019,–,–,–,inactive: -0.122,inactive: -0.067,inactive: 0.028,inactive: -0.472,–,–,–,–,–,–,–
IPO5 (UniProt H0Y3V4),inactive: 0.079,–,–,inactive: -0.046,inactive: -0.008,–,–,inactive: -0.114,inactive: 0.006,–,–,inactive: -0.034,inactive: -0.198,inactive: 0.011,inactive: 0.084,inactive: -0.332,inactive: -0.078,inactive: -0.157,inactive: -0.011,inactive: -0.077
ITPRID2 (UniProt P28290),inactive: -0.092,inactive: 0.03,–,–,inactive: 0.058,–,inactive: -0.044,–,–,–,–,inactive: 0.012,inactive: -0.034,inactive: 0.119,inactive: -0.14,inactive: 0.009,inactive: 0.007,inactive: 0.082,inactive: -0.07,inactive: -0.154
KCTD7 (UniProt Q96MP8),inactive: -0.093,–,inactive: 0.134,inactive: 0.053,inactive: 0.001,inactive: 0.005,–,inactive: 0.049,inactive: 0.009,inactive: -0.02,inactive: 0.087,inactive: 0.038,inactive: -0.035,–,–,–,–,–,–,–
KDELR3 (UniProt O43731),inactive: -0.038,–,inactive: 0.209,inactive: -0.038,inactive: 0.101,inactive: -0.104,–,inactive: 0.038,inactive: -0.114,inactive: 0.176,inactive: -0.001,inactive: -0.05,inactive: 0.245,inactive: -0.119,inactive: 0.051,inactive: 0.004,inactive: 0.05,inactive: 0.004,inactive: -0.094,inactive: -0.104
KDF1 (UniProt Q8NAX2),inactive: -0.019,inactive: -0.208,inactive: -0.118,–,–,inactive: -0.014,inactive: -0.001,–,–,inactive: 0.008,inactive: 0.012,inactive: 0.06,inactive: -0.118,–,–,–,inactive: -0.017,inactive: 0.041,inactive: 0.022,inactive: -0.037
IPO9 (UniProt Q96P70),inactive: -0.04,inactive: -0.008,inactive: -0.022,inactive: 0.017,inactive: -0.023,inactive: -0.013,inactive: -0.03,inactive: 0.02,inactive: 0.015,inactive: -0.068,inactive: 0,inactive: -0.013,inactive: -0.006,inactive: -0.106,inactive: 0.033,inactive: 0.021,inactive: -0.018,inactive: 0.021,inactive: 0.002,inactive: -0.006
KCNK1 (UniProt O00180),inactive: -0.032,inactive: 0.016,–,inactive: 0.053,inactive: -0.068,–,inactive: 0.006,inactive: 0.05,inactive: -0.052,–,–,inactive: 0.03,inactive: 0.05,inactive: 0.021,inactive: 0.094,inactive: 0.017,inactive: -0.257,inactive: 0.194,inactive: -0.156,inactive: 0.028
JAG2 (UniProt Q9Y219),inactive: -0.103,inactive: -0.035,inactive: 0.052,inactive: -0.073,inactive: -0.101,inactive: 0.32,inactive: 0.045,inactive: -0.159,inactive: 0.06,inactive: 0.183,inactive: -0.068,inactive: 0.061,inactive: 0.103,inactive: -0.127,inactive: -0.174,inactive: 0.127,–,–,–,–
IQUB (UniProt Q8NA54),inactive: 0.081,inactive: -0.185,–,–,–,–,inactive: 0.057,–,–,–,–,inactive: -0.003,–,inactive: 0.008,inactive: -0.027,inactive: 0.031,–,–,–,–
IQCD (UniProt Q96DY2),inactive: -0.04,inactive: -0.403,–,–,–,–,inactive: -0.266,–,–,–,–,inactive: -0.024,–,–,–,–,inactive: -0.153,inactive: 0.064,inactive: 0.109,inactive: 0.069
KAT14 (UniProt Q9H8E8),inactive: -0.072,inactive: 0.051,–,–,inactive: -0.008,–,inactive: -0.115,–,–,–,–,inactive: -0.006,inactive: 0.1,–,–,–,–,–,–,–
IRS2 (UniProt Q9Y4H2),inactive: -0.128,inactive: 0.023,inactive: -0.186,inactive: 0,–,inactive: 0.019,inactive: 0.031,inactive: -0.018,inactive: -0.074,inactive: -0.15,inactive: 0.142,inactive: 0.062,inactive: 0.112,active: -0.578,inactive: 0.296,inactive: 0.307,inactive: -0.05,inactive: -0.044,inactive: -0.071,inactive: -0.071
KAT2A (UniProt Q92830),inactive: 0.06,–,inactive: -0.093,inactive: 0.073,inactive: -0.061,inactive: -0.168,–,inactive: 0.03,inactive: 0.12,inactive: -0.227,inactive: 0.207,inactive: -0.032,–,inactive: 0.055,inactive: -0.131,inactive: -0.053,inactive: -0.02,inactive: 0.062,inactive: -0.085,inactive: -0.037
KDELR1 (UniProt P24390),inactive: -0.056,inactive: 0.103,inactive: -0.013,inactive: -0.036,inactive: 0,inactive: 0.034,inactive: 0.047,inactive: -0.002,inactive: 0.029,inactive: -0.094,inactive: -0.02,inactive: -0.035,inactive: -0.027,inactive: -0.199,inactive: 0.101,inactive: 0.29,–,–,–,–
ITIH2 (UniProt P19823),inactive: 0.047,inactive: -0.032,inactive: 0.009,–,inactive: 0.022,inactive: 0.035,inactive: -0.045,–,–,inactive: -0.012,inactive: 0.046,inactive: -0.031,–,inactive: -0.004,inactive: 0.055,inactive: -0.075,inactive: 0.043,inactive: 0.03,inactive: -0.006,inactive: 0.014
ITIH4 (UniProt Q14624),–,inactive: 0.019,–,inactive: -0.01,inactive: 0.104,–,inactive: -0.035,inactive: -0.003,inactive: -0.03,–,–,–,inactive: -0.278,inactive: 0.001,inactive: 0.138,inactive: 0.055,–,–,–,–
INTS6L (UniProt Q5JSJ4),inactive: -0.01,–,–,inactive: 0.031,–,–,–,inactive: -0.033,inactive: 0.224,–,–,inactive: 0.097,inactive: -0.075,inactive: -0.114,inactive: -0.164,inactive: -0.293,–,–,–,–

# As a working copy, part of the list above.
Target,log2 fold change [1],log2 fold change [2],log2 fold change [3],log2 fold change [4],log2 fold change [5],log2 fold change [6],log2 fold change [7],log2 fold change [8],log2 fold change [9],log2 fold change [10],log2 fold change [11],log2 fold change [12],log2 fold change [13],log2 fold change [14],log2 fold change [15],log2 fold change [16],log2 fold change [17],log2 fold change [18],log2 fold change [19],log2 fold change [20]
KAT2A (UniProt Q92830),inactive: 0.06,–,inactive: -0.093,inactive: 0.073,inactive: -0.061,inactive: -0.168,–,inactive: 0.03,inactive: 0.12,inactive: -0.227,inactive: 0.207,inactive: -0.032,–,inactive: 0.055,inactive: -0.131,inactive: -0.053,inactive: -0.02,inactive: 0.062,inactive: -0.085,inactive: -0.037
KDELR1 (UniProt P24390),inactive: -0.056,inactive: 0.103,inactive: -0.013,inactive: -0.036,inactive: 0,inactive: 0.034,inactive: 0.047,inactive: -0.002,inactive: 0.029,inactive: -0.094,inactive: -0.02,inactive: -0.035,inactive: -0.027,inactive: -0.199,inactive: 0.101,inactive: 0.29,–,–,–,–
